Reference: article PMC12766925, “Functional assembly of the Qc-SNARE with Sec18 and Sec17 on membranes” (Molecular Biology of the Cell, 2025)
These are yes or no findings as the source states them, for the method shown. Some results given as binding are weak or reduced against the parent protein; the word gives no strength. Where a sequence is shown, tags or fusion partners need not be part of it. Values belong to the binder of their own block, whether it stands above or below them.

Legend:
[1] = target: T1, R SNARE Nyv1 (yeast (Saccharomyces Genome Database ids)), Q12255; test: liposome floatation (density gradient) with immunoblot; VML proteoliposomes with no SNAREs, single or several anchored SNAREs (1:2000 to lipid), 0.5 mM lipid, 1 µM added Sec17, Rb150, 0.04% defatted BSA, 1 mM MgCl2, 27°C 1 h; floated through Histodenz; bound Sec17 by Western blot; both purified; settings: remark: other sources report otherwise
T1 chain: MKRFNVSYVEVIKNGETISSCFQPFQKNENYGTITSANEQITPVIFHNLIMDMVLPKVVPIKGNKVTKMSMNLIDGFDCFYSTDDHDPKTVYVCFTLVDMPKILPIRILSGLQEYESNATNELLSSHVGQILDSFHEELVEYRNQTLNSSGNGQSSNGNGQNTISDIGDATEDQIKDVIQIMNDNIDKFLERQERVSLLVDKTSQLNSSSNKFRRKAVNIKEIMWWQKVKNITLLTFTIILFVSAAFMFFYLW

[2] = target: T2, Qb SNARE Vti1 (yeast (Saccharomyces Genome Database ids)), Q04338; test: as above; settings: remark: other sources report otherwise
T2 chain: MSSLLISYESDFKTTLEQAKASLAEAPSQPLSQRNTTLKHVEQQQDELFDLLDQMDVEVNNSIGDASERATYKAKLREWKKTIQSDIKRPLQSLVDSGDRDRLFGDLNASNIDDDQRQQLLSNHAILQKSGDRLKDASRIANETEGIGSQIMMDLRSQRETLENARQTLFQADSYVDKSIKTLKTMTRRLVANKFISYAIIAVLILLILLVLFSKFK

[3] = target: T3, Qa SNARE Vam3 (yeast (Saccharomyces Genome Database ids)), Q12241; test: as above; settings: remark: other sources report otherwise
T3 chain: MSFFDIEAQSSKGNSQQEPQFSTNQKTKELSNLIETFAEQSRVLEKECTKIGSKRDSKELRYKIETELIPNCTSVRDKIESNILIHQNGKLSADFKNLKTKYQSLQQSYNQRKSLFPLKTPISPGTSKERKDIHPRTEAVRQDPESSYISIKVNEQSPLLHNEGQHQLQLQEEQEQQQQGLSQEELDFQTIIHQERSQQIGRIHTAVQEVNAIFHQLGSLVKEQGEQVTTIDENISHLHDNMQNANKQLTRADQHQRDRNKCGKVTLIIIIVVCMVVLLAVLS

[4] = target: T4, 3Sec17:Sec18 complex (yeast (Saccharomyces Genome Database ids)) (UniProt P32602+P18759); test: liposome floatation (density gradient) with immunoblot; protein-free VML liposomes, 1 mM Mg:ATPyS, where indicated 1 µM Sec17, 250 nM Sec18, 2 µM Qc; Rb150, 27°C 1 h; floated through Histodenz; bound proteins by Western blot; both purified
T4 sequence 1: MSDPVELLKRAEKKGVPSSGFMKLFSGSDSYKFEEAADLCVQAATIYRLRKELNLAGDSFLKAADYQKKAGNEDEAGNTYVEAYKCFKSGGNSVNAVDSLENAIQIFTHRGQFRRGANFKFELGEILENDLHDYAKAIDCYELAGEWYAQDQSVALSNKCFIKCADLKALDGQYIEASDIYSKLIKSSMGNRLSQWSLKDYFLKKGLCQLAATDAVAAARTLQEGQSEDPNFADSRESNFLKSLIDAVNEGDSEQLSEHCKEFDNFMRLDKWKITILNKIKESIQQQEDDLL
T4 sequence 2: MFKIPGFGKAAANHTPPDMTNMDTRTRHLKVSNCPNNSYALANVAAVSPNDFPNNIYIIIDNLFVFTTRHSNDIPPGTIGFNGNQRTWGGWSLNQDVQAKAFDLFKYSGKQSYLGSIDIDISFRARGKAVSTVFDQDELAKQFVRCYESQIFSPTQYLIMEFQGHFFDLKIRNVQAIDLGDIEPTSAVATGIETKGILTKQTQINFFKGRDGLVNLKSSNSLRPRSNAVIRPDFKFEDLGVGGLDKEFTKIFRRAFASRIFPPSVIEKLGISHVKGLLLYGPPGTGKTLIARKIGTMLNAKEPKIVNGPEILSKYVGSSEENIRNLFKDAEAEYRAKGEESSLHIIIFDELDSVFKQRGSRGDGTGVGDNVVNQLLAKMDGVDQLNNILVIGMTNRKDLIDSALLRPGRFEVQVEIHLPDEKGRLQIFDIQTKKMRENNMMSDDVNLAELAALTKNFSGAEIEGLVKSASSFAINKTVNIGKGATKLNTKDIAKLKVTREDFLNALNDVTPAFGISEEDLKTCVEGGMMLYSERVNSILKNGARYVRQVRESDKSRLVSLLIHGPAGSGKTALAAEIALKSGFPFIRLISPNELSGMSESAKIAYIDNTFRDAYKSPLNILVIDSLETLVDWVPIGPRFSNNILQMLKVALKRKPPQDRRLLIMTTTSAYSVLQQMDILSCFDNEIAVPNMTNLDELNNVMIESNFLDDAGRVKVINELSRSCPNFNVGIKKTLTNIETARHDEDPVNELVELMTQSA

binding [1]: no binding (tested: 1 µM Sec17)
binding [2]: no binding (tested: 1 µM Sec17)
binding [3]: no binding (tested: 1 µM Sec17)
B1: Sec17 (natural protein, UniProt P32602 1-292, looked up)
chain: T4 sequence 1
notes: Sec17, yeast, YBL050W; Plasmid from Schwartz and Merz, 2009; also called Sec17/SNAP; wild-type Sec17; source: E. coli Rosetta2(DE3), purified (chitin resin, DTT cleavage, dialysed into Rb150)

binding [4]: binds
B2: Qc-SNARE Vam7 (protein, UniProt P32912 1-316)
chain: MAANSVGKMSEKLRIKVDDVKINPKYVLYGVSTPNKRLYKRYSEFWKLKTRLERDVGSTIPYDFPEKPGVLDRRWQRRYDDPEMIDERRIGLERFLNELYNDRFDSRWRDTKIAQDFLQLSKPNVSQEKSQQHLETADEVGWDEMIRDIKLDLDKESDGTPSVRGALRARTKLHKLRERLEQDVQKKSLPSTEVTRRAALLRSLLKECDDIGTANIAQDRGRLLGVATSDNSSTTEVQGRTNNDLQQGQMQMVRDQEQELVALHRIIQAQRGLALEMNEELQTQNELLTALEDDVDNTGRRLQIANKKARHFNNSA
